For some assays here: The source's definition of the ratio is not given here.
How the values were obtained:
[1] = test system: P. falciparum clinical isolates from Tororo and Busia Districts of Uganda; experiment: Ex vivo 72-hour SYBR Green assay, Ugandan clinical isolates; type: cell-based, Plasmodium falciparum; conditions: curve fits
Description: Clinical isolates were from the Tororo District of Uganda, located in the central-eastern part of the county near the Kenya border. Tororo and surrounding areas have high-intensity, year-round malaria transmission. […] Patients reporting use of antimalarial treatment within the previous 30 days or with evidence of an infection with other Plasmodium species were excluded. Informed consent was obtained from patients and/or primary care givers (depending on age); children aged 8 to 17 years provided assent. Two to 5 ml of blood was collected by venipuncture in a heparin tube. […]
Samples were delivered to the adjacent IDRC laboratory at Tororo District Hospital or transported by car from Masafu Hospital on the day of collection for storage of blood spots on filter paper (for isolation of nucleic acids) and initiation of ex vivo culture of malaria parasites. […] Fluorescence was quantified using a BMG Fluostar Optima plate reader at an excitation of 485 nm and an emission of 530 nm, and data were plotted using GraphPad Prism 7. […] For each isolate, a Z′ factor to assess assay quality was calculated from positive controls (eight drug-free wells) and negative controls (eight parasite-free, red cell control wells). […]

HepG2 cells = experiment: HepG2 cytotoxicity; type: cell-based; conditions: value in brackets after HepG2 EC50
Description: Table 1. Key activity data for the three main chemical subseries against ABS parasites, parasite fractions, and HepG2 cells. ND, not determined; ×/÷ is the geometric mean with geometric SD. | column: HepG2 EC50 (nM) (selectivity index)

Question: With `CCc1nc(N)nc(N)c1-c1ccc(Cl)cc1` [Pyrimethamine, reference compound] as the compound, how does the “H.S. (mean Hill slope)” value [1] read?
Answer: 2.02

Question: For `CCNC(=O)c1cnc(OCC(C)C)c(-c2nc3c(C(C)C)n[nH]c3c(=O)[nH]2)c1` [SAL-0010333], which HepG2 selectivity index (HepG2 cells) is on record?
Answer: 727

Question: Which HepG2 selectivity index (HepG2 cells) does the source give for `CNC(=O)c1cnc(OCC(C)C)c(-c2nc3c(C(C)C)n[nH]c3c(=O)[nH]2)c1` [SAL-0010301] here?
Answer: 277

Question: Which “H.S. (mean Hill slope)” value [1] does the source give for `CCN(CC)CCCC(C)Nc1ccnc2cc(Cl)ccc12` (centres unmarked) [Chloroquine] here?
Answer: 4.51

Question: How did the HepG2 selectivity index (HepG2 cells) turn out when `CCc1c2nc(-c3cc(C(=O)NC)cnc3OCC(C)C)[nH]c(=O)c2nn1CCOC` [SAL-0010031] was run?
Answer: 143
